Article PMC10415178
Results are given in words; binding and its absence hold for the method and conditions named. Binding seen in cells or lysates may run through a third protein. Binding calls can cover weak binding; strength is not graded here.

Amino acid sequences for entries named in this document (tags omitted). A change or cut given only in a name is not applied to a line headed by its entry.
UniProt Q04887: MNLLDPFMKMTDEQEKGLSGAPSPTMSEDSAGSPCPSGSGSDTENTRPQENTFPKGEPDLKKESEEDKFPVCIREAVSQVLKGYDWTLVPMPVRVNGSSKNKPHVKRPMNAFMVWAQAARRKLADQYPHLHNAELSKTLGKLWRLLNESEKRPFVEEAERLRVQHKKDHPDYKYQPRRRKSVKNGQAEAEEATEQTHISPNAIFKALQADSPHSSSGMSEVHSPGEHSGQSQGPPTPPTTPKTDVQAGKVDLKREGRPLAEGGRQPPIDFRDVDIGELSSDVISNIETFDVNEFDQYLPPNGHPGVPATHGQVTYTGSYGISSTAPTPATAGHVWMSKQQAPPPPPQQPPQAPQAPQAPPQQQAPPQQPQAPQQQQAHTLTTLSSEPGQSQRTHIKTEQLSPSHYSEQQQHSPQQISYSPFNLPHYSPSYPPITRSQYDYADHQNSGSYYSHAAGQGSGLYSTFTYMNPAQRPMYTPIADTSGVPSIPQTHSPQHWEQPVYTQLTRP
UniProt P05627: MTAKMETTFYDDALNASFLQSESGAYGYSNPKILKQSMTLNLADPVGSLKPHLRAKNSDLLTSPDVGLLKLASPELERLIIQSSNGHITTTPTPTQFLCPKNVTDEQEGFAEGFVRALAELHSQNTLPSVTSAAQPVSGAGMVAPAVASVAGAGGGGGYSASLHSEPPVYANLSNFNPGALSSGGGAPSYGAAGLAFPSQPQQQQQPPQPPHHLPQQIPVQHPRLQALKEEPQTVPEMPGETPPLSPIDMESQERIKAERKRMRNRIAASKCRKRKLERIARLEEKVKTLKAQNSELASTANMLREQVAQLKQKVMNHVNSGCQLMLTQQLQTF
UniProt A2BH40: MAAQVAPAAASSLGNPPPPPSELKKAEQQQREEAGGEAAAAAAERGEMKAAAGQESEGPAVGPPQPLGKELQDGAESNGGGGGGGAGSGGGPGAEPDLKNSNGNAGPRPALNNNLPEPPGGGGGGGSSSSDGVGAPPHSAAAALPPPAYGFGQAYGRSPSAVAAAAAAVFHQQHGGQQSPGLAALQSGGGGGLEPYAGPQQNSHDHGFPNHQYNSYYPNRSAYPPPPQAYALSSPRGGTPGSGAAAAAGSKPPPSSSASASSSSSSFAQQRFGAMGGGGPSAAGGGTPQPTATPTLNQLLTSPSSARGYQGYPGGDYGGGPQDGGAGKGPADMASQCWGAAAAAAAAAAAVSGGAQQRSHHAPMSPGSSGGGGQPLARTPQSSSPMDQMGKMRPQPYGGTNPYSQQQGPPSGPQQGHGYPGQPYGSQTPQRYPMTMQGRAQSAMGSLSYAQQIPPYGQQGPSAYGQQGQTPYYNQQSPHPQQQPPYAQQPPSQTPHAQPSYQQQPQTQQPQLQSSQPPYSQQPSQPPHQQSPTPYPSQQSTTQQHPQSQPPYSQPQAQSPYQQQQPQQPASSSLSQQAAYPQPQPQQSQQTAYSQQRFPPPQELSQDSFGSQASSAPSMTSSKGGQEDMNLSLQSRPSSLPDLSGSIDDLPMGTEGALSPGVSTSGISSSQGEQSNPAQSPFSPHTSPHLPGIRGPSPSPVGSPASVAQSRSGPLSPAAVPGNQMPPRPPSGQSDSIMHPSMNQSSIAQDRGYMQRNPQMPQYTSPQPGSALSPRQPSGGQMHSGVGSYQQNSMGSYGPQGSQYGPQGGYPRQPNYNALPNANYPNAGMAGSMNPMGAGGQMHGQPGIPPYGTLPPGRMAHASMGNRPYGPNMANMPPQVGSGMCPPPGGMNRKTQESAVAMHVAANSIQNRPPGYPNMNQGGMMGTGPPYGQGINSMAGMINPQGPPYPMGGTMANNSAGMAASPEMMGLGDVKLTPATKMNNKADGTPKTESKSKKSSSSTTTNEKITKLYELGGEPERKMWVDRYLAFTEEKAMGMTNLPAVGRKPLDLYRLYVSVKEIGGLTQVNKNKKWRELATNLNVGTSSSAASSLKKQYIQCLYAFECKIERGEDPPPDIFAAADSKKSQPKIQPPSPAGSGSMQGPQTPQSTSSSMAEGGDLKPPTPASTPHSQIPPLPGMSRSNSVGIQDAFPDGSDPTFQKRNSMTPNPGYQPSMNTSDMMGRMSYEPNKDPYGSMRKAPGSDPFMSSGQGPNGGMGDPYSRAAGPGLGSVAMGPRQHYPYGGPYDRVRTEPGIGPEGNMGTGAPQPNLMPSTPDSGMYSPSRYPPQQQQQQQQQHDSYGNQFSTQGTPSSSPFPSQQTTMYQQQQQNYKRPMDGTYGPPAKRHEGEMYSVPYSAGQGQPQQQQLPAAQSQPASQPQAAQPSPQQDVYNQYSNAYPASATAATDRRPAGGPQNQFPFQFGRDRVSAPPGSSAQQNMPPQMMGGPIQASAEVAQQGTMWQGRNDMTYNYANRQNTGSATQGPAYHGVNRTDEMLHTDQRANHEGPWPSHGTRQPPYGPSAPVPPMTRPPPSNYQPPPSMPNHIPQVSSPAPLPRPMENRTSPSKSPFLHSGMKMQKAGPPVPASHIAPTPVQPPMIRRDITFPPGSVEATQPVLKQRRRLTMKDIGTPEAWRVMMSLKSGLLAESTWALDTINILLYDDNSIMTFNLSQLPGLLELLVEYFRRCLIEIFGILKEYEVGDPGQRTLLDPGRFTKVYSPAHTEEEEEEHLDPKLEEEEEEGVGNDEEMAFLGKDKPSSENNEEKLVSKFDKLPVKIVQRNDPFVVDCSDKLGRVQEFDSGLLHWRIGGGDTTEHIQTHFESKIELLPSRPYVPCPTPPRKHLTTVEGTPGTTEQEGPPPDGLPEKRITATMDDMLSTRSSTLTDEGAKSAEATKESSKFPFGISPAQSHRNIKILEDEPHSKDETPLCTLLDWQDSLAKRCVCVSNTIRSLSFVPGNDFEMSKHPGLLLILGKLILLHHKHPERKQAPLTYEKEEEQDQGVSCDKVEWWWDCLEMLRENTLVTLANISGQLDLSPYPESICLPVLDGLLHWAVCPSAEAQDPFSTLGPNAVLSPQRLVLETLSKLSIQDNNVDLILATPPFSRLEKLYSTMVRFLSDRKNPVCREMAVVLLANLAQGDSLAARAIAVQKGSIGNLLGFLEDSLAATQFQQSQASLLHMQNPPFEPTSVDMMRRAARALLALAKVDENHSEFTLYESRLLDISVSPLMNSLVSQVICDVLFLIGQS

Target: MYC-tagged ΔHMG-SOX9 (UniProt Q04887)
Assay: co-IP; cultured EpdSC lysates with or without DOX induction of MYC-tagged SOX9 or its variants; anti-myc tag antibody on protein-A/G magnetic beads; immunoblot for MLL4, cJUN or ARID1a

Substance | binding
c-JUN (from UniProt P05627 1-334) | binds
ARID1a (from UniProt A2BH40 1-2283) | binds
